{"sequences": {"note": "The chains behind the UniProt entries cited, without tags or fusion partners.", "UniProt P20309, whole entry": "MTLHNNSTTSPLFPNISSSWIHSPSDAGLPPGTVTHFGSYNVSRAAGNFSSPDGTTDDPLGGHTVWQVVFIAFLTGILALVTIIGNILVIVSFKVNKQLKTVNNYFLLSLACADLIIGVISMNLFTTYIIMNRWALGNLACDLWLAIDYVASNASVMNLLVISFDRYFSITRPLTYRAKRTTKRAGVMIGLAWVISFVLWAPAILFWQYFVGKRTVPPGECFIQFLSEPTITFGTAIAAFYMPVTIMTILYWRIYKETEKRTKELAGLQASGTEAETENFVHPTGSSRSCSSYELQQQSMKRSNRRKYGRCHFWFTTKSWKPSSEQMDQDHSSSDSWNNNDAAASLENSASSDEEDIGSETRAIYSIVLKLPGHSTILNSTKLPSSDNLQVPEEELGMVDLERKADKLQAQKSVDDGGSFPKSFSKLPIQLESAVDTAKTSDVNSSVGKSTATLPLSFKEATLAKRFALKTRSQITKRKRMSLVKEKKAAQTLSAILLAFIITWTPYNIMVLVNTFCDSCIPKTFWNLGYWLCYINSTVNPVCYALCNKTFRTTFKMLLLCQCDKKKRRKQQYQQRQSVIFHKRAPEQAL"}, "source": "ChEMBL document CHEMBL2311283", "about": "“Structural modifications to tetrahydropyridine-3-carboxylate esters en route to the discovery of M5-preferring muscarinic receptor orthosteric antagonists” (J Med Chem, 2013)", "biological_target": "Muscarinic acetylcholine receptor M3 (Homo sapiens, UniProt P20309)", "test": "Displacement of [3H]NMS from human M3 muscarinic receptor expressed in CHO-K1 cells", "assay_type": "cell-based"}
{"compound": "CN1[C@@H]2C[C@@H](OC(=O)[C@H](CO)c3ccccc3)C[C@H]1[C@@H]1O[C@@H]12", "note": "[SCOPOLAMINE]", "values": [{"measurement": "Ki", "value": 6.5, "unit": "nM"}]}
